{"source": "the supplement of paper PMC8728848", "test_in_all_cases": "glycan array binding signal (z-score within array); higher = stronger binding", "conditions_in_all_cases": "glycan notation: IUPAC condensed, linker removed", "key": {"[1]": {"biological_target": "Gal(b1-4)GlcNAc(b1-2)Man(a1-6)[GlcNAc(b1-2)Man(a1-3)]Man(b1-4)GlcNAc(b1-4)GlcNAc", "in_short": "(§1)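 From the Consortium for Functional Glycomics database, 3228 arrays were curated, keeping only those whose protein sequence was available. Binding is given as a within-array Z-score averaged across arrays sharing a protein sequence and across linkers. Negative Z-scores can be read as non-binding.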"}, "[2]": {"biological_target": "Gal(b1-4)GlcNAc(b1-2)Man(a1-6)[Man(a1-3)]Man(b1-4)GlcNAc(b1-4)GlcNAc", "in_short": "as §1"}, "[3]": {"biological_target": "Gal(b1-4)GlcNAc(b1-2)[Gal(b1-4)GlcNAc(b1-4)]Man(a1-3)[Gal(b1-4)GlcNAc(b1-2)Man(a1-6)]Man(b1-4)GlcNAc(b1-4)GlcNAc", "in_short": "as §1"}, "[4]": {"biological_target": "Gal(b1-4)GlcNAc(b1-2)[Gal(b1-4)GlcNAc(b1-4)]Man(a1-3)[Gal(b1-4)GlcNAc(b1-2)[Gal(b1-4)GlcNAc(b1-6)]Man(a1-6)]Man(b1-4)GlcNAc(b1-4)GlcNAc", "in_short": "as §1"}, "[5]": {"biological_target": "Gal(b1-4)GlcNAc(b1-2)[Gal(b1-4)GlcNAc(b1-4)]Man(a1-3)[GlcNAc(b1-4)][Gal(b1-4)GlcNAc(b1-2)Man(a1-6)]Man(b1-4)GlcNAc(b1-4)GlcNAc", "in_short": "as §1"}, "[6]": {"biological_target": "Gal(b1-4)GlcNAc(b1-2)[Gal(b1-4)GlcNAc(b1-4)]Man(a1-3)[GlcNAc(b1-4)][Gal(b1-4)GlcNAc(b1-2)[Gal(b1-4)GlcNAc(b1-6)]Man(a1-6)]Man(b1-4)GlcNAc(b1-4)GlcNAc", "in_short": "as §1"}, "[7]": {"biological_target": "Gal(b1-4)GlcNAc(b1-2)[Gal(b1-4)GlcNAc(b1-6)]Man(a1-6)[Gal(b1-4)GlcNAc(b1-2)Man(a1-3)]Man(b1-4)GlcNAc(b1-4)GlcNAc", "in_short": "as §1"}, "[8]": {"biological_target": "Gal(b1-4)GlcNAc(b1-2)[Gal(b1-4)GlcNAc(b1-6)]Man(a1-6)[Gal(b1-4)GlcNAc(b1-2)Man(a1-3)]Man(b1-4)GlcNAc(b1-4)[Fuc(a1-6)]GlcNAc", "in_short": "as §1"}, "[9]": {"biological_target": "Gal(b1-4)GlcNAc(b1-2)[Gal(b1-4)GlcNAc(b1-6)]Man(a1-6)[GlcNAc(b1-4)][Gal(b1-4)GlcNAc(b1-2)Man(a1-3)]Man(b1-4)GlcNAc(b1-4)GlcNAc", "in_short": "as §1"}, "[10]": {"biological_target": "Gal(b1-4)GlcNAc(b1-2)[Gal(b1-4)GlcNAc(b1-6)]Man(a1-6)[GlcNAc(b1-4)][Gal(b1-4)GlcNAc(b1-2)[Gal(b1-4)GlcNAc(b1-4)]Man(a1-3)]Man(b1-4)GlcNAc(b1-4)[Fuc(a1-6)]GlcNAc", "in_short": "as §1"}, "[11]": {"biological_target": "Gal(b1-4)GlcNAc(b1-3)Gal(b1-3)GalNAc", "in_short": "as §1"}, "[12]": {"biological_target": "Gal(b1-4)GlcNAc(b1-3)Gal(b1-3)GlcNAc", "in_short": "as §1"}, "[13]": {"biological_target": "Gal(b1-4)GlcNAc(b1-3)Gal(b1-4)Glc", "in_short": "as §1"}, "[14]": {"biological_target": "Gal(b1-4)GlcNAc(b1-3)Gal(b1-4)GlcNAc", "in_short": "as §1"}, "[15]": {"biological_target": "Gal(b1-4)GlcNAc(b1-3)Gal(b1-4)GlcNAc(b1-2)Man(a1-3)[Gal(b1-4)GlcNAc(b1-3)Gal(b1-4)GlcNAc(b1-2)Man(a1-6)]Man(b1-4)GlcNAc(b1-4)GlcNAc", "in_short": "as §1"}, "[16]": {"biological_target": "Gal(b1-4)GlcNAc(b1-3)Gal(b1-4)GlcNAc(b1-2)Man(a1-3)[Gal(b1-4)GlcNAc(b1-3)Gal(b1-4)GlcNAc(b1-2)Man(a1-6)]Man(b1-4)GlcNAc(b1-4)[Fuc(a1-6)]GlcNAc", "in_short": "as §1"}, "[17]": {"biological_target": "Gal(b1-4)GlcNAc(b1-3)Gal(b1-4)GlcNAc(b1-2)[Gal(b1-4)GlcNAc(b1-3)Gal(b1-4)GlcNAc(b1-6)]Man(a1-6)[Gal(b1-4)GlcNAc(b1-3)Gal(b1-4)GlcNAc(b1-2)Man(a1-3)]Man(b1-4)GlcNAc(b1-4)GlcNAc", "in_short": "as §1"}, "[18]": {"biological_target": "Gal(b1-4)GlcNAc(b1-3)Gal(b1-4)GlcNAc(b1-2)[Gal(b1-4)GlcNAc(b1-3)Gal(b1-4)GlcNAc(b1-6)]Man(a1-6)[Gal(b1-4)GlcNAc(b1-3)Gal(b1-4)GlcNAc(b1-2)Man(a1-3)]Man(b1-4)GlcNAc(b1-4)[Fuc(a1-6)]GlcNAc", "in_short": "as §1"}}, "note": "The list shows a part of the results.", "data": [{"binder": "HA-61200 (Pseudomonas aeruginosa), Q02SP8_PSEAB (protein) MNKCYALVWNVSQGCWNVVSEGSRRRGKPAGAKAAIASVLALLGATALAPAYALPSGGTVVGGSANGEIHLSGGNSLSVNQKVDKLIANWDSFSVAAGERVIFNQPSSSSIALNRVIGTKASDIQGRIDANGQVFLVNPNGVLFGRGAQVNVGGLVASTLDITDAEFNGNSSRYRFTGPSTNGVLNHGGAITAAEGGSIALLGAQVDNRGTVLAQMGGVGLGAGSDLTLNFDGNKLLDIRVDAGVANALASNGGLLKADGGRVLMAARTANALLNTVVNSQGAIEARSLRGKNGRIVLDG", "values": [{"measurement": "glycan array binding signal (z-score)", "setting": "[1]", "value": 0.028}, {"measurement": "glycan array binding signal (z-score)", "setting": "[2]", "value": -0.465}, {"measurement": "glycan array binding signal (z-score)", "setting": "[3]", "value": -0.262}, {"measurement": "glycan array binding signal (z-score)", "setting": "[4]", "value": -0.145}, {"measurement": "glycan array binding signal (z-score)", "setting": "[5]", "value": -0.424}, {"measurement": "glycan array binding signal (z-score)", "setting": "[6]", "value": 1.45}, {"measurement": "glycan array binding signal (z-score)", "setting": "[7]", "value": 1.7}, {"measurement": "glycan array binding signal (z-score)", "setting": "[8]", "value": 0.538}, {"measurement": "glycan array binding signal (z-score)", "setting": "[9]", "value": 0.379}, {"measurement": "glycan array binding signal (z-score)", "setting": "[10]", "value": -0.101}, {"measurement": "glycan array binding signal (z-score)", "setting": "[11]", "value": -0.391}, {"measurement": "glycan array binding signal (z-score)", "setting": "[12]", "value": 0.257}, {"measurement": "glycan array binding signal (z-score)", "setting": "[13]", "value": -0.679}, {"measurement": "glycan array binding signal (z-score)", "setting": "[14]", "value": -0.105}, {"measurement": "glycan array binding signal (z-score)", "setting": "[15]", "value": 0.248}, {"measurement": "glycan array binding signal (z-score)", "setting": "[16]", "value": 2.26}, {"measurement": "glycan array binding signal (z-score)", "setting": "[17]", "value": 1.46}, {"measurement": "glycan array binding signal (z-score)", "setting": "[18]", "value": -0.339}]}]}
